Measurements taken from article PMC7245964.

Target: T1, Hansenula polymorpha Cdc13 (Hansenula polymorpha DL-1 (ATCC 26012, Ogataea parapolymorpha DL-1)) (UniProt W1QJ57)
T1 sequence: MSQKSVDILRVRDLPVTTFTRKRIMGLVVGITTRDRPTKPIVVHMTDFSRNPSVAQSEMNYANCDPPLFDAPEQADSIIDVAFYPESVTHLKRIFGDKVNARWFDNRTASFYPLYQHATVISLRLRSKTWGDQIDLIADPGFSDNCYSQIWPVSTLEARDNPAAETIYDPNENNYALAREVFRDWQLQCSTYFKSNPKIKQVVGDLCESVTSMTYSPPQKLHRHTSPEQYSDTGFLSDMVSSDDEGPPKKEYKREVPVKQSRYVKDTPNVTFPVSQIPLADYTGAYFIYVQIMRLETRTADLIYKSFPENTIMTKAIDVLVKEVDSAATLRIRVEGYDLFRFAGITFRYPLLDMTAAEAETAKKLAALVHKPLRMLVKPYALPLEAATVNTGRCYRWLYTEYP
Assay: two-hybrid; Gal4-BD (pGBKT7) and Gal4-AD (pGADT7) fusions cotransformed into S. cerevisiae AH109; HIS3 reporter, growth on SC-Leu-Trp-His; 30°C for four days

Hansenula polymorpha Est1 fragment, residues 1-591 (domain or fragment)
binding: no binding

Hansenula polymorpha Stn1
binding: binds

Hansenula polymorpha telomerase reverse transcriptase
binding: binds

Hansenula polymorpha Ten1
binding: no binding

Results are given in words; binding and its absence hold for the method and conditions named. A result given as binding can be weak or reduced; the word gives no strength.
